Reference: PubChem BioAssay AID212 (DTP/NCI, 2004)
The list shows only some results of the screen, not a fair sample: it gathers tests that were run many times, whatever their T/C, doses with no T/C, and many T/C values between a quarter and a half above the control. Further doses and runs are listed elsewhere. T/C gives the treated animals as a percentage of the vehicle group. Schedules are NCI's codes, taken here to give the interval after Q, in days (D) or hours (H), and the number of doses after X. Some T/C values carry the count of animals alive at the toxicity check (mostly the fifth day); without a count, all were alive then. Some entries give survivors of the animals treated and no T/C: the source files T/C as zero there, which appears to mark a toxic dose or a test without result, not a measured value. Survivors were counted at the toxicity check, usually on the fifth day, unless a day is given; later deaths do not show. Some doses were run more than once; the values are given in rising order.

Test system: BDF1 mice, colon carcinoma 38 sc, T/C %
Experiment: NCI In Vivo Anticancer Drug Screen. Data for tumor model Colon Carcinoma 38 (subcutaneous) in B6D2F1 (BDF1) mice
Details: T/C endpoint: median tumor weight (est.), higher T/C = larger tumour; for T/C: evaluated on day 20
Outline: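 T/C readout: treated group (T) measurement over vehicle control group (C) measurement. Endpoint is survival or tumor size in mice bearing a transplanted tumor.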

[1] = dose: 100.0 mg/kg/injection, schedule: Q07DX002 (ip), vehicle: saline

O=NNc1ccccn1
T/C (dose: 6.25 mg/kg/injection, schedule: Q07DX002 (ip), vehicle: saline): 137 % of control | survivor count (dose: 50.0 mg/kg/injection, schedule: Q07DX002 (ip), vehicle: saline): 0 of 10 on day 20 | survivor count [1]: 0 of 10 on day 20

CC[C@@]1(O)C(=O)OCc2c1cc1n(c2=O)Cc2cc3cc(O)ccc3nc2-1
survivor count (dose: 24.0 mg/kg/injection, schedule: Q07DX002 (ip), vehicle: saline): 2 of 10 on day 20

O=c1cnn(C2OC(CO)C(O)C2O)c(=O)[nH]1 (centres undefined)
T/C [1]: 126 % of control

Cc1c2cc[n+](C)cc2c(C)c2c1[nH]c1ccc(O)cc12
T/C (dose: 0.25 mg/kg/injection, schedule: Q07DX002 (ip), vehicle: water): 143 % of control | T/C (dose: 0.5 mg/kg/injection, schedule: Q07DX002 (ip), vehicle: water): 137 % of control | T/C (dose: 0.75 mg/kg/injection, schedule: Q07DX002 (ip), vehicle: water): 130 % of control | T/C (dose: 1.0 mg/kg/injection, schedule: Q07DX002 (ip), vehicle: water): 129 % of control | survivor count (dose: 4.0 mg/kg/injection, schedule: Q07DX002 (ip), vehicle: water): 2 of 10 on day 20 | survivor count (dose: 6.0 mg/kg/injection, schedule: Q07DX002 (ip), vehicle: water): 2 of 10 on day 20 | survivor count (dose: 8.0 mg/kg/injection, schedule: Q07DX002 (ip), vehicle: water): 0 of 10 on day 20 and 5 of 10 on day 20 | survivor count (dose: 10.0 mg/kg/injection, schedule: Q07DX002 (ip), vehicle: water): 0 of 10 on day 20 | survivor count (dose: 12.0 mg/kg/injection, schedule: Q07DX002 (ip), vehicle: water): 0 of 10 on day 20

Cc1ccc(S(=O)(=O)NC(=O)C2C(=O)CC3(CCCCC3)CC2=O)cc1
survivor count (dose: 800.0 mg/kg/injection, schedule: Q07DX002 (ip), vehicle: Klucel (hydroxypropylcellulose) (HPC)): 5 of 10 on day 20

N=[N+]=CC(=O)OCC(N)C(=O)O (centres undefined)
T/C (dose: 12.5 mg/kg/injection, schedule: Q07DX002 (ip), vehicle: water): 126 % of control | survivor count (dose: 50.0 mg/kg/injection, schedule: Q07DX003 (ip), vehicle: clinical formulation): 6 of 10 | survivor count (dose: 100.0 mg/kg/injection, schedule: Q07DX002 (ip), vehicle: water): 0 of 10 on day 20

COc1cc(C[C@H]2c3cc(OC)c(OC)cc3CCN2C)c(Oc2cc3c(cc2OC)-c2c(OC)c(OC)cc4c2[C@H](C3)N(C)CC4)cc1OC
T/C (dose: 200.0 mg/kg/injection, schedule: Q04DX003 (ip), vehicle: saline): 142 % of control | survivor count (dose: 400.0 mg/kg/injection, schedule: Q01DX005 (ip), vehicle: saline): 4 of 10 | T/C (dose: 400.0 mg/kg/injection, schedule: Q04DX003 (ip), vehicle: saline): 125 % of control

ClC(Cl)(Cl)C1=NCc2nnn(Cc3ccccc3)c2N1
T/C (dose: 12.5 mg/kg/injection, schedule: Q07DX002 (ip), vehicle: saline with Tween-80): 132 % of control | T/C (dose: 50.0 mg/kg/injection, schedule: Q07DX002 (ip), vehicle: distilled water + Tween-80): 126 % of control | T/C (dose: 50.0 mg/kg/injection, schedule: Q07DX002 (ip), vehicle: saline with Tween-80): 135 % of control | T/C (dose: 100.0 mg/kg/injection, schedule: Q07DX002 (ip), vehicle: distilled water + Tween-80): 132 % of control | T/C (dose: 200.0 mg/kg/injection, schedule: Q07DX002 (ip), vehicle: saline with Tween-80): 143 % of control | T/C (dose: 400.0 mg/kg/injection, schedule: Q07DX002 (ip), vehicle: distilled water + Tween-80): 131 % of control [9 of 10 alive on day 20]

Cc1ccc(N)c(N)c1
survivor count (dose: 800.0 mg/kg/injection, schedule: Q07DX002 (ip), vehicle: saline with Tween-80): 0 of 10 on day 20

O/N=C/c1ccccc1O.O/N=C/c1ccccc1O.[Cu]
survivor count (dose: 100.0 mg/kg/injection, schedule: Q07DX002 (ip), vehicle: saline with Tween-80): 2 of 10 on day 20 and 6 of 10 on day 20
